Source: paper PMC10066265, “Inhibitor-3 inhibits Protein Phosphatase 1 via a metal binding dynamic protein–protein interaction” (Nature Communications, 2023)
These are yes or no findings as the source states them, for the method shown. Some results given as binding are weak or reduced against the parent protein; the word gives no strength. Sequences can lack the tags named with a protein.

Chains of the proteins cited; added tags and fusions are not shown. Residues count along the entry.
UniProt P62136, residues 7-300: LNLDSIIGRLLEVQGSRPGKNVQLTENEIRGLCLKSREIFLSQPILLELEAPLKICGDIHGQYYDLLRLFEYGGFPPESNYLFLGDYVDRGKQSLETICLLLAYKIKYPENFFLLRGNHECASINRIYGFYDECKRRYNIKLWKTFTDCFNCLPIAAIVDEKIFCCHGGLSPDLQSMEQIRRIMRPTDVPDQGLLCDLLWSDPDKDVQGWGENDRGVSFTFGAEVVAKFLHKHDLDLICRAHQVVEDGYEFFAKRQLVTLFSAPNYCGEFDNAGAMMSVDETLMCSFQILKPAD

Target: PP1α_(7-300) (co-expressed with GFP-I3_(27-68) in Expi293F cells) (UniProt P62136)
Assay: crystal structure; I3_(27-68) and PP1α_(7-300) co-expressed in Expi293F cells; complex crystallised at 6.5 mg/ml; 2.0 Å

**Q.** SLTIKLRKRKPEKKVEWTSDTVDNEHMGRRSSKCCCIYEKPR (domain or fragment, UniProt O60927 27-68) [I3_(27-68) (expressed as GFP-I3_(27-68) with PP1α_(7-300) in Expi293F cells)] was tested. Which binding did it give?
**A.** binds
